The other results are listed elsewhere or left out.
What was measured:
Experiment in all cases: glycan array binding signal (z-score within array); higher = stronger binding
Conditions in all cases: glycan notation: IUPAC condensed, linker removed
[1] = target: Fuc(a1-2)[GalNAc(a1-3)]Gal(b1-3)GlcNAc(b1-6)GalNAc
Summary of the method: (§1)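 Glycan array data were curated from 3228 arrays in the Consortium for Functional Glycomics database and kept only where the protein sequence was available. Glycan names were converted to IUPAC-condensed notation, and columns mapping to the same glycan were averaged. The binding signal is a within-array Z-score, averaged across arrays of the same protein sequence at different concentrations or buffers and across linkers. Negative Z-scores can be read as non-binding.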

[2] = target: Fuc(a1-2)[GalNAc(a1-3)]Gal(b1-4)Glc
Summary of the method: as §1

[3] = target: Fuc(a1-2)[GalNAc(a1-3)]Gal(b1-4)GlcNAc
Summary of the method: as §1

[4] = target: Fuc(a1-2)[GalNAc(a1-3)]Gal(b1-4)GlcNAc(b1-2)Man
Summary of the method: as §1

[5] = target: Fuc(a1-2)[GalNAc(a1-3)]Gal(b1-4)GlcNAc(b1-2)Man(a1-3)[Fuc(a1-2)[GalNAc(a1-3)]Gal(b1-4)GlcNAc(b1-2)Man(a1-6)]Man(b1-4)GlcNAc(b1-4)GlcNAc
Summary of the method: as §1

[6] = target: Fuc(a1-2)[GalNAc(a1-3)]Gal(b1-4)GlcNAc(b1-2)Man(a1-3)[Fuc(a1-2)[GalNAc(a1-3)]Gal(b1-4)GlcNAc(b1-2)Man(a1-6)]Man(b1-4)GlcNAc(b1-4)[Fuc(a1-6)]GlcNAc
Summary of the method: as §1

[7] = target: Fuc(a1-2)[GalNAc(a1-3)]Gal(b1-4)GlcNAc(b1-3)Gal(b1-4)GlcNAc
Summary of the method: as §1

[8] = target: Fuc(a1-2)[GalNAc(a1-3)]Gal(b1-4)GlcNAc(b1-3)Gal(b1-4)GlcNAc(b1-3)Gal(b1-4)GlcNAc
Summary of the method: as §1

[9] = target: Fuc(a1-2)[GalNAc(a1-3)]Gal(b1-4)GlcNAc(b1-3)GalNAc
Summary of the method: as §1

[10] = target: Fuc(a1-2)[GalNAc(a1-3)]Gal(b1-4)GlcNAc(b1-3)[Fuc(a1-2)[GalNAc(a1-3)]Gal(b1-4)GlcNAc(b1-6)]GalNAc
Summary of the method: as §1

[11] = target: Fuc(a1-2)[GalNAc(a1-3)]Gal(b1-4)GlcNAc(b1-6)GalNAc
Summary of the method: as §1

[12] = target: Fuc(a1-2)[GalNAc(a1-3)]Gal(b1-4)[Fuc(a1-3)]GlcNAc
Summary of the method: as §1

[13] = target: Fuc(a1-2)[GalNAc(a1-3)]Gal(b1-4)[Fuc(a1-3)]GlcNAc(b1-3)GalNAc
Summary of the method: as §1

[14] = target: Fuc(a1-2)[GalNAc(a1-4)]Gal(b1-4)GlcNAc
Summary of the method: as §1

[15] = target: Fuc(a1-2)[GalNAc(b1-3)]Gal
Summary of the method: as §1

[16] = target: Fuc(a1-3)GlcNAc
Summary of the method: as §1

[17] = target: Fuc(a1-3)[Gal(b1-4)]Glc6S
Summary of the method: as §1

[18] = target: Fuc(a1-3)[Gal(b1-4)]GlcNAc
Summary of the method: as §1

[19] = target: Fuc(a1-3)[Gal(b1-4)]GlcNAc(b1-2)Man
Summary of the method: as §1

[20] = target: Fuc(a1-3)[Gal(b1-4)]GlcNAc(b1-2)Man(a1-3)[Fuc(a1-3)[Gal(b1-4)]GlcNAc(b1-2)Man(a1-6)]Man(b1-4)GlcNAc(b1-4)GlcNAc
Summary of the method: as §1

[21] = target: Fuc(a1-3)[Gal(b1-4)]GlcNAc(b1-2)Man(a1-3)[Fuc(a1-3)[Gal(b1-4)]GlcNAc(b1-2)Man(a1-6)]Man(b1-4)GlcNAc(b1-4)[Fuc(a1-6)]GlcNAc
Summary of the method: as §1

[22] = target: Fuc(a1-3)[Gal(b1-4)]GlcNAc(b1-3)Gal(b1-3)[Fuc(a1-4)]GlcNAc
Summary of the method: as §1

[23] = target: Fuc(a1-3)[Gal(b1-4)]GlcNAc(b1-3)Gal(b1-4)[Fuc(a1-3)]GlcNAc
Summary of the method: as §1

[24] = target: Fuc(a1-3)[Gal(b1-4)]GlcNAc(b1-3)Gal(b1-4)[Fuc(a1-3)]GlcNAc(b1-3)Gal(b1-4)[Fuc(a1-3)]GlcNAc
Summary of the method: as §1

[25] = target: Fuc(a1-3)[Gal(b1-4)]GlcNAc(b1-3)GalNAc
Summary of the method: as §1

[26] = target: Fuc(a1-3)[Gal(b1-4)]GlcNAc(b1-6)GalNAc
Summary of the method: as §1

[27] = target: Fuc(a1-3)[Gal(b1-4)]GlcNAc(b1-6)[Gal(b1-3)GlcNAc(b1-3)]Gal(b1-4)Glc
Summary of the method: as §1

[28] = target: Fuc(a1-3)[Gal(b1-4)]GlcNAc6S
Summary of the method: as §1

[29] = target: Fuc(a1-3)[Gal3S(b1-4)]Glc
Summary of the method: as §1

[30] = target: Fuc(a1-3)[Gal3S(b1-4)]GlcNAc
Summary of the method: as §1

[31] = target: Fuc(a1-3)[Gal3S(b1-4)]GlcNAc6S
Summary of the method: as §1

[32] = target: Fuc(a1-3)[GalNAc(b1-4)]GlcNAc
Summary of the method: as §1

[33] = target: Fuc(a1-3)[GalNAc(b1-4)]GlcNAc6S
Summary of the method: as §1

[34] = target: Fuc(a1-4)GlcNAc
Summary of the method: as §1

[35] = target: Fuc(b1-3)GlcNAc
Summary of the method: as §1

[36] = target: Gal(a1-2)Gal
Summary of the method: as §1

[37] = target: Gal(a1-3)Gal
Summary of the method: as §1

B1: SynCAM (Mus musculus) (protein)
chain: MASAVLPSGSQCAAAAAVAAAAAPPGLRLRLLLLLLSAAALIPTGDGQNLFTKDVTVIEGEVATISCQVNKSDDSVIQLLNPNRQTIYFRDFRPLKDSRFQLLNFSSSELKVSLTNVSISDEGRYFCQLYTDPPQESYTTITVLVPPRNLMIDIQKDTAVEGEEIEVNCTAMASKPATTIRWFKGNKELKGKSEVEEWSDMYTVTSQLMLKVHKEDDGVPVICQVEHPAVTGNLQTQRYLEVQYKPQVHIQMTYPLQGLTREGDAFELTCEAIGKPQPVMVTWVRVDDEMPQHAVLSGPNLFINNLNKTDNGTYRCEASNIVGKAHSDYMLYVYDPPTTIPPP
glycan array binding signal (z-score) [1]: 0.367
glycan array binding signal (z-score) [2]: 0.01
glycan array binding signal (z-score) [3]: -0.651
glycan array binding signal (z-score) [4]: 0.164
glycan array binding signal (z-score) [5]: -0.287
glycan array binding signal (z-score) [6]: -0.535
glycan array binding signal (z-score) [7]: -1.5
glycan array binding signal (z-score) [8]: -0.416
glycan array binding signal (z-score) [9]: -0.516
glycan array binding signal (z-score) [10]: -0.716
glycan array binding signal (z-score) [11]: -0.149
glycan array binding signal (z-score) [12]: -0.028
glycan array binding signal (z-score) [13]: 0.535
glycan array binding signal (z-score) [14]: -0.052
glycan array binding signal (z-score) [15]: 0.423
glycan array binding signal (z-score) [16]: -0.37
glycan array binding signal (z-score) [17]: -1.77
glycan array binding signal (z-score) [18]: -0.177
glycan array binding signal (z-score) [19]: -0.737
glycan array binding signal (z-score) [20]: -1.05
glycan array binding signal (z-score) [21]: 0.325
glycan array binding signal (z-score) [22]: -0.868
glycan array binding signal (z-score) [23]: 1.02
glycan array binding signal (z-score) [24]: -0.148
glycan array binding signal (z-score) [25]: -0.245
glycan array binding signal (z-score) [26]: -0.537
glycan array binding signal (z-score) [27]: -0.563
glycan array binding signal (z-score) [28]: -0.003
glycan array binding signal (z-score) [29]: -0.287
glycan array binding signal (z-score) [30]: -0.415
glycan array binding signal (z-score) [31]: -1.13
glycan array binding signal (z-score) [32]: 2.63
glycan array binding signal (z-score) [33]: -0.587
glycan array binding signal (z-score) [34]: -0.05
glycan array binding signal (z-score) [35]: 0.961
glycan array binding signal (z-score) [36]: -0.215
glycan array binding signal (z-score) [37]: 0.302

— the supplement of paper PMC8728848
